The nature of data set [1]: PA imaging unmixing experiment in tissue-mimicking phantoms. Particulars: water with hemoglobin 10 mg/mL.
Data set [2] has as its system A549 cells. In words: Colocalization studies with organelle trackers. It is filed as cell-based, human.

Each structure is given as a SMILES string.

`COc1ccc(C2=[N+]3C(=Nc4c(-c5ccccc5)cc(-c5ccc(OC)cc5)n4[B-]3(F)F)C(c3ccccc3)=C2)cc1` [AB-OMe2, reference compound]: the “PA signal after unmixing” value in data set [1] (30 μM) is listed as “barely above background”.
Consider `CO[B-]1(OC)n2c(-c3ccc(OCc4cn(C(COC5OC(CO)C(O)C(O)C5O)COC5OC(CO)C(O)C(O)C5O)nn4)cc3)cc(-c3ccccc3)c2N=C2C(c3ccccc3)=CC(c3ccc(OCc4cn(C(COC5OC(CO)C(O)C(O)C5O)COC5OC(CO)C(O)C(O)C5O)nn4)cc3)=[N+]21` (centres unmarked) [mvGlu-AB2], for which, in data set [1] (same dye concentration (30 μM)), the “PA intensity after spectral unmixing, higher than AB-OMe2” value was 11 fold. For the same molecule, in data set [2], the “Pearson coefficient, colocalization with DAPI” value is 0.629; the “Pearson coefficient, colocalization with Lysotracker Green” value is listed as 0.505; the “Pearson coefficient, colocalization with MitoTracker Green” value stood at 0.475.
